Laboratory results published in paper PMC4389316, “C-terminal residues of skeletal muscle calsequestrin are essential for calcium binding and for skeletal ryanodine receptor inhibition” (Skeletal Muscle, 2015).
No constants are given. Whether binding was seen depends on the method and setting. Binding seen in cells or lysates may run through a third protein. A result given as binding can be weak or reduced; the word gives no strength.

Chains of the proteins cited; added tags and fusions are not shown. Lines headed by an entry give the natural chain unless they say otherwise; changes in a name come on top.
UniProt P07221: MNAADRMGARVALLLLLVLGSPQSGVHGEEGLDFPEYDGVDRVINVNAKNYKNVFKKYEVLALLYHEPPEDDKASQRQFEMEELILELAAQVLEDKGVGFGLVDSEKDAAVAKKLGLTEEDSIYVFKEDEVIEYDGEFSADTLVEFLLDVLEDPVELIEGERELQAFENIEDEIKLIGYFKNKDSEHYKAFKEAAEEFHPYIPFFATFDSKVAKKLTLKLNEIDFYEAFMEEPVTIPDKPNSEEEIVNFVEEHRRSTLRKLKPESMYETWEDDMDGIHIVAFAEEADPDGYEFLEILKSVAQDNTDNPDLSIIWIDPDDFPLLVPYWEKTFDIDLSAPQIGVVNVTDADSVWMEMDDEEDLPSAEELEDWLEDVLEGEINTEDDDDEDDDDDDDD

Tests used:
[1] = molecular target: CSQ1DA1 (rabbit CSQ1 with one C-terminal acidic residue changed to alanine) (rabbit) (UniProt P07221); test: co-IP; purified CSQ1 construct coupled to anti-CSQ1/protein A/G agarose (Pierce kit), then exposed to purified trisk95 or junctin; 20 mM MOPS, 150 mM NaCl, 1 mM CaCl2, pH 7.4; CSQ1 to partner 2:1 by weight; Western blot; both purified
[2] = molecular target: CSQ1DA2 (rabbit CSQ1 with two alternate C-terminal acidic residues changed to alanine) (rabbit) (UniProt P07221); test: as above

B1: skeletal triadin 95 kDa (trisk95) (protein, UniProt Q28820 1-706)
chain: MTEITAEGNASTTTTVIDSKNGSVPKSPGKVLKRTVTEDLVTTFSSPAAWLLVIALIITWSAVAVVMFDLVDYKNFSASSIAKMGSDPLKLVHDAVEETTDWIYGFFSLLSDIISSDGDEEDDEGDEDTAKGEIEEPPLKRKDIHKEKIEKQEKPERKIPTKVVHKEKEKEKEKVKEKEKPEKKATHKEKLEKKEKPETKTVTKEEKKARTKEKIEEKTKKEVKGVKQEKVKQTVAKAKEVQKTPKPKEKESKETAAVSKQEQKDQYAFCRYMIDIFVHGDLKPGQSPAIPPPSPTEQASRPTPALPTPEEKEGEKKKAEKKVTTETKKKAEKEDAKKKSEKETDIDMKKKEPGKSPDTKPGTVKVTTQAATKKDEKKEDSKKAKKPAEEQPKGKKQEKKEKHEEPAKSTKKEHAAPSEKQAKAKIERKEEVSAASTKKAVPAKKEEKTTKTVEQETRKEKPGKISSVLKDKELTKEKEVKVPASLKEKGSETKKDEKTSKPEPQIKKEEKPGKEVKPKPPQPQIKKEEKPEQDIMKPEKTALHGKPEEKVLKQVKAVTTEKHVKPKPAKKAEHQEKEPPSIKTDKPKSTSKGMPEVTESGKKKIEKSEKEIKVPARRESHQLQNVTKAEKPARGSKEGFEDVPASKKAKEEAEEVSSTKKQKSPISFFQCVYLDGYNGYGFQFPVTPAQYPGESSGKPNSPGPKQ
[1]
  binding: binds
[2]
  binding: binds
